Source: article PMC6151435, “Bioactivity In Vitro of Quercetin Glycoside Obtained in Beauveria bassiana Culture and Its Interaction with Liposome Membranes” (Molecules : A Journal of Synthetic Chemistry and Natural …, 2017)
Some values come without a unit; they compare only within their column.

Key:
[1] = Fluorescence measurements with MC540, TMA-DPH and DPH probes in liposome membranes; conditions: PC liposomes
Protocol: Small unilamellar liposomes (SUV) consisted of phosphatidylcholine (egg-PC) were prepared in accordance with the methodology described by Gabrielska and Oszmiański. The lipids were dissolved in chloroform (100 mg/mL), evaporated to dryness under nitrogen and under vacuum for another 60 min. Subsequently, a phosphate buffer […] of pH 7.4 was added and liposomes were formed by mechanical shaking. Then SUVs were formed using a 20 kHz sonicator for 15 min. During sonication the samples were thermostated at 0–2 °C. In the study, PC liposomes at a concentration of 0.1 mg/mL in phosphate buffer (pH 7.4) were used. Liposomes prepared according to the presented-above procedure were used to determine the antioxidative activity and in fluorometric studies.
The Q 7-MeGlu and Q effect on the hydrophilic and hydrophobic properties of the membrane was determined using the fluorometric method applying the MC540, TMA-DPH and DPH fluorescence probes according to the procedure described by Strugała et al.. Merocyanine 540 (MC540) is a probe that partitions into the membrane and orients parallel to the glycerol backbones of the lipids. The fluorescence intensity of MC540 emission was determined and expressed as relative intensity change in relation to control as a function of studied compounds concentration. The TMA-DPH and DPH probes are supposed to distribute in the hydrophobic part of the bilayer. All the fluorescent probes were used at 1 μM concentration. The DPH and TMA-DPH stock solutions were prepared in DMF, while the probe MC540 was dissolved in methanol. Liposomes were prepared according to procedure described in Section 3.6.1. The control samples contained liposomes and a fluorescent probe, while the study samples contained compounds (Q 7-MeGlu or Q at final concentrations 1, 5 and 10 µM). Liposomes suspended in buffer were incubated for 30 min with probe. In next step, Q 7-MeGlu or Q were added at final concentrations 1, 5 and 10 μM and incubated for 10 min. The excitation and emission wavelengths were as follows: for MC540 λex = 540 nm and λem = 590 nm, for TMA-DPH λex = 340 nm and λem = 430 nm, and for DPH probe λex = 360 nm and λem = 425 nm. Fluorescence anisotropy for TMA-DPH and DPH was calculated using the following equation [64]:(5) A=I∥−GI⊥/I∥+2GI⊥ where I∥ and I⊥ are fluorescence intensities observed in directions parallel and perpendicular, respectively to the polarization plane of the exciting wave. G is the apparatus constant dependent on the emission wavelength.
The fluorescence experiment was conducted using a Cary Eclipse fluorimeter (Varian, Palo Alto, CA, USA). Measurements were carried out at room temperature (approx. 20 °C). The experiment was performed in six replicates (n = 6).

[2] = 1H-NMR study of interaction with DPPC liposomes (PrCl3 shift reagent); conditions: 0.24 mM compound, DPPC 36 mM, 325 K
Protocol: The ^1H-NMR method of investigating the Q 7-MeGlu and Q interaction with liposomes was described earlier by Gabrielska et al. with minor modifications. Mixtures of phospholipids (DPPC) with studied compounds were co-dissolved in a chloroform/methanol mixture (55:1 v/v) at the respective concentrations. The lipid concentration in the sample was 36 mM and that of Q 7-MeGlu and Q was 0.24 mM […]. The samples were first evaporated under a stream of nitrogen and then in a vacuum (overnight). Then the samples were hydrated with D2O and vigorously shaken (15 min) at temperature above the main phase transition of lipid (41 °C) until optical homogeneity of the mixture was reached. Next, the lipid suspension was sonicated with a 20 kHz sonicator (20 kHz, Sonic, Italy) to yield a homogeneous lipid dispersion. Briefly, before the measurements a 4 mM praseodymium trichloride (PrCl3 × 6H2O) in heavy water solution […] was added to the sample of 0.6 mL liposome suspension. ^1H-NMR parameters were as follows: spectral window 12.019 Hz, digital resolution 0.183 Hz, acquisition and delay times 2.73 s and 1.00 s, respectively, and acquisition temperature 325 K. The experiment was performed in two replicates.

[3] = system: T1, human serum albumin (HSA); experiment: Binding to human serum albumin (fluorescence quenching); conditions: for ∆H / ∆S: Van't Hoff, 300–315 K
T1 construct: purchased Sigma-Aldrich
Excerpt: Fluorescence quenching induced by studied molecules is described using the well-known Stern-Volmer equation [53]:(1) F0/F=1+Kqτ0[Qu]=1+KSV[Qu] where: F0 and F are HSA fluorescence intensities before and after adding quencher, respectively, Kq is a bimolecular quenching constant, τ0 is life time of the fluorophore in the absence of quencher (the fluorescence life time of a biopolymer is about 5 × 10^−9 s, [Qu] is the quencher concentration, and KSV is the Stern–Volmer quenching constant (KSV = Kq × τ0). The plot of F0/F against [Qu] at 310 K is shown in Figure 3A,B. The Stern–Volmer plots are evidently linear in the 1–16 μM range of concentration for studied compounds.
The value of the binding constant Ka is crucial for understanding the distribution of the drug in plasma. A strong binding produces a decrease in plasma concentrations, […] the distribution and the pharmacological effect of the compound [55]. The apparent binding constant (Kb) and number of binding sites (n) can be calculated using the following equation:(2) log(F0−F/F)=logKb+nlog[Qu]
The interaction forces between a drug and a biomacromolecule may include hydrophobic forces, electrostatic interactions, van der Waals interactions, hydrogen bonds, etc. The thermodynamic parameters of binding reaction are the main evidence for confirming a binding force. In order to elucidate the binding mode, the binding constant for flavonoid–HSA complex formation was evaluated at four different temperatures. The thermodynamic parameters of the binding process can be calculated using the Van’t Hoff equation [60]:(3) lnKb=−ΔH/RT+ΔS/R
The enthalpy change ∆H is calculated on the basis of the slope of lnKb vs. […] plot. The free-energy change ΔG is estimated on the basis of the following equation:(4) ΔG=ΔH−TΔS=−RTlnKb where: ΔH ΔG and ΔS are enthalpy, free enthalpy and entropy change, respectively. R is the gas constant 8.314 J·mol^−1·K^−1.
Analysis of Q 7-MeGlu and Q interaction with human serum albumin (HSA) was performed according to the procedure described by Strugała et al.. The fluorescence measurements were performed on a Cary Eclipse fluorimeter equipped with 1.0 cm quartz cells and a thermostat bath. All quenching experiments were performed at 300, 305, 310 and 315 K for HSA in a phosphate buffer solution of pH 7.4 and final concentration 1.5 × 10^−5 M. The excitation wavelength was set at 280 nm (excitation of the Trp and Tyr), and the emission spectra were read at 285–460 nm. The excitation and emission slits were both set to 5 nm. Our method consisted in tracking the quenching of natural HSA fluorescence caused by Q 7-MeGlu and Q (of final concentrations 1, 2, 4, 6, 8, 10, 12, 14 and 16 µM) added successively. The stock solutions of Q 7-MeGlu and Q were prepared by dissolving in methanol. Control sample contained appropriate amount of methanol. […] The experiment was performed in three independent replicates (n = 3).

O=c1c(O)c(-c2ccc(O)c(O)c2)oc2cc(O)cc(O)c12 [Quercetin, 3,3′,4′,5,7-pentahydroxyflavone]
DPH Anisotropy Change from Control ([1]; 1 µM compound): 0.2943 ± 0.0708 | MC540 Intensity Change from Control ([1]; 1 µM compound): −0.2890 ± 0.0289 | TMA-DPH Anisotropy Change from Control ([1]; 1 µM compound): 0.1619 ± 0.0133 | DPH Anisotropy Change from Control ([1]; 5 µM compound): 0.7464 ± 0.0649 | MC540 Intensity Change from Control ([1]; 5 µM compound): −0.4585 ± 0.0660 | TMA-DPH Anisotropy Change from Control ([1]; 5 µM compound): 0.2449 ± 0.0122 | DPH Anisotropy Change from Control ([1]; 10 µM compound): 0.9661 ± 0.0511 | MC540 Intensity Change from Control ([1]; 10 µM compound): −0.5580 ± 0.0012 | TMA-DPH Anisotropy Change from Control ([1]; 10 µM compound): 0.3708 ± 0.0674 | Iout/Iin [2]: 1.3305 | Δδ (splitting of the ammonium group band) [2]: 0.1560 ppm | ν -CH2 (full width at half height) [2]: 0.1181 ppm | ν -CH3 (full width at half height) [2]: 0.0604 ppm | ν -N+-(CH3)3in (full width at half height) [2]: 0.0261 ppm | ν -N+-(CH3)3out (full width at half height) [2]: 0.0799 ppm | n (number of binding sites) ([3]; T 300 K): 1.048 ± 0.145 | ∆G ([3]; T 300 K): -13.444 ± 1.962 kJ/M | n (number of binding sites) ([3]; T 305 K): 1.014 ± 0.176 | ∆G ([3]; T 305 K): -13.167 ± 2.319 kJ/M | n (number of binding sites) ([3]; T 310 K): 0.801 ± 0.055 | ∆G ([3]; T 310 K): -10.755 ± 0.812 kJ/M | n (number of binding sites) ([3]; T 315 K): 0.645 ± 0.023 | ∆H [3]: -132.616 ± 3.859 kJ/M | ∆S [3]: −390.267 ± 12.102 J/(M·K)

CO[C@H]1[C@H](O)[C@@H](O)[C@H](Oc2cc(O)c3c(=O)c(O)c(-c4ccc(O)c(O)c4)oc3c2)O[C@@H]1CO [Q 7-MeGlu, quercetin 7-O-β-D-(4″-O-methyl)glucopyranoside]
DPH Anisotropy Change from Control ([1]; 1 µM compound): 0.0614 ± 0.0359 | MC540 Intensity Change from Control ([1]; 1 µM compound): −0.0269 ± 0.0137 | TMA-DPH Anisotropy Change from Control ([1]; 1 µM compound): 0.0518 ± 0.0144 | DPH Anisotropy Change from Control ([1]; 5 µM compound): 0.1257 ± 0.0193 | MC540 Intensity Change from Control ([1]; 5 µM compound): −0.0955 ± 0.0010 | TMA-DPH Anisotropy Change from Control ([1]; 5 µM compound): 0.0845 ± 0.0218 | DPH Anisotropy Change from Control ([1]; 10 µM compound): 0.2674 ± 0.0584 | MC540 Intensity Change from Control ([1]; 10 µM compound): −0.1240 ± 0.0189 | TMA-DPH Anisotropy Change from Control ([1]; 10 µM compound): 0.1005 ± 0.0328 | Iout/Iin [2]: 0.8646 | Δδ (splitting of the ammonium group band) [2]: 0.1000 ppm | ν -CH2 (full width at half height) [2]: 0.1179 ppm | ν -CH3 (full width at half height) [2]: 0.0627 ppm | ν -N+-(CH3)3in (full width at half height) [2]: 0.0323 ppm | ν -N+-(CH3)3out (full width at half height) [2]: 0.0882 ppm | n (number of binding sites) ([3]; T 300 K): 1.082 ± 0.025 | ∆G ([3]; T 300 K): -12.380 ± 0.286 kJ/M | n (number of binding sites) ([3]; T 305 K): 1.024 ± 0.055 | ∆G ([3]; T 305 K): -11.810 ± 0.724 kJ/M | n (number of binding sites) ([3]; T 310 K): 0.634 ± 0.026 | ∆G ([3]; T 310 K): -7.323 ± 0.343 kJ/M | n (number of binding sites) ([3]; T 315 K): 0.437 ± 0.011 | ∆G ([3]; T 315 K): -5.196 ± 0.151 kJ/M | ∆H [3]: -164.46 ± 5.590 kJ/M | ∆S [3]: −504.768 ± 18.919 J/(M·K)
